Data reported in patent publication US20250074942A1 (Calico Life Sciences LLC, priority 2022, published 2025).

Assay: general procedure: Fmoc solid-phase peptide synthesis; Tentagel M NH2 resin (30 μm bead size) with HMPB linker; HATU/DIEA; DIC/DMAP for C-terminal residue
Settings: whole synthesis; for isolated yield: scale of the general procedure 0.72 mmol

In the case of “NH2-4Af-Met-Ala-Ser-Ala-Ala-Cha-Arg-Leu-OH”, the isolated mass is reported as 7.3 mg and the isolated yield is reported as 39% yield.
Work on “NH2-4Af-Met-Dff-Ser-Ala-Ala-Cha-Arg-Leu-OH” yielded an isolated mass of 4.8 mg and an isolated yield (theoretical amount based on synthesis scale, adjusted for crude fraction purified) of 39% yield.
In the case of “NH2-Ala-Met-hAr-Dff-Tha-Ala-Cha-Arg-Leu-OH”, the isolated mass is reported as 8.2 mg and the isolated yield is reported as 38% yield.
“NH2-Cha-hAr-Ala-Leu-hAr-Gln-Met-Mff-hAr-OH” showed an isolated mass of 2.0 mg and an isolated yield of 9% yield.
For “NH2-Cha-hAr-Ala-Leu-hAr-Gln-Nle-Mff-hAr-OH”, the isolated mass was 15.7 mg and the isolated yield was 18% yield.
“NH2-hAR-Met-hAR-Gln-Mff-Ala-Cha-hAR-Leu-OH” showed an isolated mass of 7.5 mg and an isolated yield of 31% yield.
In the case of “NH2-hAr-Met-Msn-Dff-Cha-Ala-Arg-Msn-Leu-OH”, the isolated mass is reported as 8.0 mg and the isolated yield is reported as 20% yield.
“NH2-hAr-Met-hAr-Gln-Mff-Ala-Cha-hAr-Nle-OH” gave an isolated mass of 1.9 mg and an isolated yield of 6% yield.
With “NH2-hAr-Mox-hAr-Gln-Mff-Ala-Cha-hAr-Leu-OH” the isolated mass was 6.1 mg and the isolated yield was 18% yield.
For “NH2-hAr-Nle-hAr-Gln-Mff-Ala-Cha-hAr-Aoa-OH”, the isolated mass was 9.7 mg and the isolated yield was 29% yield.
“NH2-hAr-Nle-hAr-Gln-Mff-Ala-Cha-hAr-Cha-OH” gave an isolated mass of 5.9 mg and an isolated yield of 18% yield.
“NH2-hAr-Nle-hAr-Gln-Mff-Ala-Cha-hAr-Leu-OH” gave an isolated mass of 8.8 mg and an isolated yield of 27% yield.
